Earlier results in US20140329781A1, “METHODS FOR TREATING CARDIOVASCULAR DISORDER” (WOCKHARDT LIMITED, priority 2011, published 2014).
The name of at least one read-out is uncertain.

Structure (SMILES): COCCc1ccc(OCC(O)CNC(C)C)cc1 (stereo not shown) [Metoprolol]
- permeability (in words): highly permeable
